The target of the assay is SUMO-tagged ACR4 KC with the LLSLL motif replaced with Ala (sACR4 KC-AAAAA) (Arabidopsis). The experiment in a line: peptide binding assay on nickel coated plates (streptavidin-alkaline phosphatase, A405); ~1 μM protein immobilised by its His tag on a 96 well nickel coated plate in TBS + 0.1% Tween20; 200 μM biotinylated peptide, 2 h room temperature; SUMO well subtracted; both purified.

Results are given in words; binding and its absence hold for the method and conditions named. Binding can be weak; no strength is given.

On to DTRSSKDSAFTKDNG (biotin tag at the amino terminus) [JMD1 peptide of the ACR4 juxtamembrane domain], for which the binding entry was “binds”.

As for HRRADKDSAFVNELES (biotin tag at the amino terminus) [CRK1 hC peptide (helix-C region of the CRK1 kinase domain)], the binding result is reported as “binds”. With DTRSSKDSAFTKDNG (phosphoserine at 475) [pJMD1 peptide (JMD1 with phosphorylated Ser475)] the entry was “binds”.
